From PubChem BioAssay AID330 (DTP/NCI, 2004) come the findings set out here.

The list shows only some results of the screen, not a fair sample: it is rich in T/C values a quarter to a half above the control, in often repeated tests (any T/C) and in doses without a T/C. Other doses and runs of a compound stand elsewhere. T/C: endpoint of the treated group in % of that of the vehicle group. Some entries give survivors of the animals treated and no T/C: the source holds a T/C of zero for them, seemingly a mark for toxic or unscored doses. Some survivor counts are full or nearly so, which does not show that the dose was tolerated: the source hardly ever lists a survival T/C far under the control, and the zero likely stands for such cases as well. Counts of survivors are from the toxicity check (mostly the fifth day) where no day follows; animals may have died later. Schedule codes are those of the source, taken here to give the interval after Q, in days (D) or hours (H), and the number of doses after X. Some doses were run more than once; the values are given in rising order. For survival time, this PubChem deposit counts one and a half times the control or more as active, and values a quarter to a half above the control carry no call in these data; other NCI protocols may use other cut-offs. Some T/C values are followed by the survivors on the day toxicity was checked, most often the fifth; without a count, all were alive then. Counts like (3×) stand for listed records that agree.

The assay relates to P388 leukemia ip, CD2F1 mice, survival T/C. The experiment in a line: NCI In Vivo Anticancer Drug Screen. Data for tumor model P388 Leukemia (intraperitoneal) in CD2F1 (CDF1) mice. The settings on record: T/C endpoint: median survival time, higher T/C = longer survival.
[1] abbreviates: dose: 100.0 mg/kg/injection, schedule: Q01DX009 (ip), vehicle: water.
[2] abbreviates: dose: 200.0 mg/kg/injection, schedule: Q01DX009 (ip), vehicle: water.
Where [3] appears, read: dose: 50.0 mg/kg/injection, schedule: Q01DX009 (ip), vehicle: saline with Tween-80.
Setting [4] is: dose: 100.0 mg/kg/injection, schedule: Q01DX009 (ip), vehicle: saline with Tween-80.
Where [5] appears, read: dose: 200.0 mg/kg/injection, schedule: Q01DX009 (ip), vehicle: saline with Tween-80.
Where [6] appears, read: dose: 200.0 mg/kg/injection, schedule: Q01DX009 (ip), vehicle: saline.
Where [7] appears, read: dose: 200.0 mg/kg/injection, schedule: Q01DX009 (ip), vehicle: Klucel (hydroxypropylcellulose) (HPC).
Setting [8] is: dose: 100.0 mg/kg/injection, schedule: Q01DX005 (ip), vehicle: saline with Tween-80.
[9] abbreviates: dose: 200.0 mg/kg/injection, schedule: Q01DX005 (ip), vehicle: saline with Tween-80.

Consider `O=C1c2ccccc2C(=O)c2c(NCCNCCNCCO)ccc(NCCNCCNCCO)c21`, for which the T/C under setting [1] is 136 % of control. Moreover, the survivor count is, setting by setting: under setting [1], 3 of 6; (dose: 128.0 mg/kg/injection, schedule: Q01DX009 (ip), vehicle: acid diluted with saline) 2 of 8; under setting [2], 0 of 6; (dose: 400.0 mg/kg/injection, schedule: Q01DX009 (ip), vehicle: water) 0 of 6.

Turning to `CCC(=N\NC(=S)NCCN(CC)CC)/C(C)=N/NC(=S)NCCN(CC)CC`, the survivor count runs as follows: under setting [3], 0 of 6; under setting [4], 0 of 6; under setting [5], 0 of 6.

As for `O=CC(CO)CC(C=O)n1cnc2c(=O)[nH]cnc21` (stereo unspecified), the T/C reads like this: (dose: 25.0 mg/kg/injection, schedule: Q01DX005 (ip), vehicle: saline) 98, 115, 118, 127 % of control; (dose: 37.5 mg/kg/injection, schedule: Q01DX005 (ip), vehicle: saline) 132 % of control; (dose: 50.0 mg/kg/injection, schedule: Q01DX005 (ip), vehicle: saline) 120, 121, 131, 133 % of control; (dose: 75.0 mg/kg/injection, schedule: Q01DX005 (ip), vehicle: saline) 144 and 146 % of control; (dose: 100.0 mg/kg/injection, schedule: Q01DX005 (ip), vehicle: saline) 134 (2×), 138 [9 of 10 alive], 156 % of control; (dose: 200.0 mg/kg/injection, schedule: Q01DX005 (ip), vehicle: saline) 131, 134, 137, 185 % of control. Also, the T/C (dose: 400.0 mg/kg/injection, schedule: Q01DX005 (ip), vehicle: saline) is 148, 150, 156, 191 % of control. Also, the survivor count (dose: 600.0 mg/kg/injection, schedule: Q01DX005 (ip), vehicle: saline) is 0 of 6 and 1 of 6.

As for `CNC(=O)n1cccc(OC)c1=O`, the T/C reads like this: (dose: 50.0 mg/kg/injection, schedule: Q01DX009 (ip), vehicle: saline) 101, 103, 104, 107, 116 % of control; (dose: 100.0 mg/kg/injection, schedule: Q01DX009 (ip), vehicle: saline) 98, 102, 105, 119, 130 % of control; under setting [6], 106, 108, 111, 155 % of control. Besides, the survivor count under setting [6] was 2 of 6; the survivor count (dose: 400.0 mg/kg/injection, schedule: Q01DX009 (ip), vehicle: saline) was 0 of 6 and 3 of 6.

In the case of `COc1ccc2c(c1)CCC1(C)CC(=O)C=C21` (stereo unspecified), the survivor count (dose: 50.0 mg/kg/injection, schedule: Q01DX009 (ip), vehicle: Klucel (hydroxypropylcellulose) (HPC)) is recorded as 6 of 6; the survivor count (dose: 100.0 mg/kg/injection, schedule: Q01DX009 (ip), vehicle: Klucel (hydroxypropylcellulose) (HPC)) is 6 of 6; the survivor count under setting [7] was 6 of 6.

Take `COc1cc(OC)c(OC)cc1/C=C\c1ccc2ccccc2[n+]1C`: the T/C is 127 % of control (dose: 3.12 mg/kg/injection, schedule: Q01DX009 (ip), vehicle: distilled water + Tween-80 + alcohol); 132 % of control (dose: 6.25 mg/kg/injection, schedule: Q01DX009 (ip), vehicle: distilled water + Tween-80 + alcohol); 144 % of control (dose: 12.5 mg/kg/injection, schedule: Q01DX009 (ip), vehicle: distilled water + Tween-80 + alcohol); 127 % of control (dose: 25.0 mg/kg/injection, schedule: Q01DX009 (ip), vehicle: saline with Tween-80); 133 % of control [4 of 5 alive] under setting [3].

With `CCOC(=O)/C(=C/c1ccco1)C(C)=O`, for the setting “dose: 400.0 mg/kg/injection, schedule: Q01DX009 (ip), vehicle: Klucel (hydroxypropylcellulose) (HPC)”, the survivor count is given as 2 of 6.

With `COc1cc([N+](=O)[O-])ccc1N=Cc1ccc(C=Nc2ccc([N+](=O)[O-])cc2OC)cc1`, under setting [7], the survivor count is listed as 6 of 6.

Consider `COc1cc2c[n+]3c4c(cccc4c2cc1OC)CCC3`, for which the survivor count is, setting by setting: under setting [1], 5 of 6; under setting [2], 0 of 6.

As to `COc1cc(C(=O)Nc2ccc(NC3=NCCN3)cc2)cc(C(=O)Nc2ccc(NC3=NCCN3)cc2)c1`, the survivor count (dose: 50.0 mg/kg/injection, schedule: Q01DX005 (ip), vehicle: saline with Tween-80) was 0 of 6; the survivor count under setting [8] was 0 of 6; the survivor count under setting [9] is listed as 0 of 6.

Take `CCCCOC1NC(=O)Oc2ccccc21` (stereo unspecified): the T/C (dose: 240.0 mg/kg/injection, schedule: Q01DX005 (ip), vehicle: saline with Tween-80) is 137 % of control. Moreover, the survivor count (dose: 480.0 mg/kg/injection, schedule: Q01DX005 (ip), vehicle: saline with Tween-80) is recorded as 0 of 6.

In the case of `NC(=O)C1=Cc2cccn2-c2ccccc2S1`, for the setting “dose: 240.0 mg/kg/injection, schedule: Q01DX005 (ip), vehicle: Klucel (hydroxypropylcellulose) (HPC)”, the survivor count was 0 of 6.

Turning to `CC(=O)Nc1ccc(S(=O)(=O)CC#N)cc1`, where the note is “dose: 200.0 mg/kg/injection, schedule: Q01DX009 (ip), vehicle: suspension in saline”, the survivor count is 6 of 6.

As to `O=c1[nH]c(=O)n([C@H]2CCCO2)cc1F`, the T/C under setting [4] is 135 % of control; the T/C (dose: 134.0 mg/kg/injection, schedule: Q01DX009 (ip), vehicle: Klucel (hydroxypropylcellulose) (HPC)) was 129 % of control; the T/C (dose: 288.0 mg/kg/injection, schedule: Q04DX003 (ip), vehicle: Klucel (hydroxypropylcellulose) (HPC)) was 131 % of control; the T/C (dose: 430.0 mg/kg/injection, schedule: Q04DX003 (ip), vehicle: Klucel (hydroxypropylcellulose) (HPC)) is 142 % of control; the T/C (dose: 957.0 mg/kg/injection, schedule: Q01DX001 (ip), vehicle: Klucel (hydroxypropylcellulose) (HPC)) was 134 % of control. For the same compound, the survivor count was 5 of 6 (dose: 400.0 mg/kg/injection, schedule: Q01DX009 (ip), vehicle: saline with Tween-80) and 3 of 10 (dose: 1436.0 mg/kg/injection, schedule: Q01DX001 (ip), vehicle: Klucel (hydroxypropylcellulose) (HPC)).

Turning to `O=C1C2(Cl)C3CCC4C5CCC3C1(Cl)C5(Cl)C42Cl` (stereo unspecified), the survivor count (dose: 400.0 mg/kg/injection, schedule: Q04DX002 (ip), vehicle: saline with Tween-80) was 3 of 6.

Regarding `Cc1cc2nc3n(c2cc1C)C(=O)c1cc2ccccc2cc1-3`, the survivor count reads like this: (dose: 12.5 mg/kg/injection, schedule: Q01DX009 (ip), vehicle: saline with Tween-80) 6 of 6; under setting [3], 6 of 6; under setting [4], 6 of 6; under setting [5], 6 of 6.

With `Cc1c(Cl)c(Cl)nn1C(C)C(=O)N(C)C` (stereo unspecified), the survivor count (dose: 400.0 mg/kg/injection, schedule: Q04DX003 (ip), vehicle: Klucel (hydroxypropylcellulose) (HPC)) is listed as 6 of 6.

On to `c1ccc2cc(OCC(COc3ccc4ccccc4c3)(COc3ccc4ccccc4c3)COc3ccc4ccccc4c3)ccc2c1`, for which the survivor count (dose: 15.0 mg/kg/injection, schedule: Q01DX009 (ip), vehicle: saline with Tween-80) is given as 6 of 6 and the survivor count (dose: 30.0 mg/kg/injection, schedule: Q01DX009 (ip), vehicle: saline with Tween-80) is listed as 6 of 6.

Consider `FC(F)(F)C1(C(F)(F)F)O[Te]2(OC1(C(F)(F)F)C(F)(F)F)OC(C(F)(F)F)(C(F)(F)F)C(C(F)(F)F)(C(F)(F)F)O2`, for which the survivor count is, setting by setting: (dose: 25.0 mg/kg/injection, schedule: Q01DX005 (ip), vehicle: Klucel (hydroxypropylcellulose) (HPC)) 0 of 6; (dose: 50.0 mg/kg/injection, schedule: Q01DX005 (ip), vehicle: Klucel (hydroxypropylcellulose) (HPC)) 0 of 6; (dose: 100.0 mg/kg/injection, schedule: Q01DX005 (ip), vehicle: Klucel (hydroxypropylcellulose) (HPC)) 0 of 6; (dose: 200.0 mg/kg/injection, schedule: Q01DX005 (ip), vehicle: Klucel (hydroxypropylcellulose) (HPC)) 0 of 6.

Turning to `[CH3][Ge]([CH3])([CH3])[N]=S=[N][Ge]([CH3])([CH3])[CH3]`, the survivor count under setting [8] was 1 of 6 and the survivor count under setting [9] is on record as 0 of 6.
